Measurements reported in PubChem BioAssay AID504774 (Drosophila RNAi Screening Center, 2011).
In all, the deposit lists about 23,000 reagents; shown is an unselected part of those with a known target gene and a result. 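Values are quantile-normalised luminescence on an arbitrary scale; higher means more cells surviving MMS.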 The numbers tell different reagents against one gene apart. Further read-outs or replicates are left out here.

Test: 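Knock-downs that shift viability of MMS-exposed cells relative to untreated ones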 (primary screen)
Cells: Drosophila Kc167 cells
Knock-down reagent: long dsRNA against Drosophila genes, about 0.25 µg dsRNA per well
Timing: about 6 days: 3 days knock-down, then 3 days with or without MMS
Conditions: methyl methanesulphonate 0.004% (w/v) for 3 days after knock-down
Measured: 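ATP-dependent luminescence as a measure of live cells in MMS-exposed wells, quantile normalised within each plate, with replicate values also given as a mean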
Direction: mean viability with MMS and viability with MMS: higher = more surviving cells after MMS

| Gene | dsRNA no. | mean viability with MMS | viability with MMS, replicate 1 |
| --- | --- | --- | --- |
| CG14186 | 1 | 3.72e6 | 4.22e6 |
| CG4554 | 1 | 3.32e6 | 3.61e6 |
| CG30158 | 1 | 3.59e6 | 4.06e6 |
| CG30158 | 2 | 3.58e6 | 4.09e6 |
| CG30158 | 3 | 3.56e6 | 4.12e6 |
| CG30158 | 4 | 3.61e6 | 4.15e6 |
| Gyc88E | 1 | 3.42e6 | 3.63e6 |
| CG3906 | 1 | 3.75e6 | 4.28e6 |
| maca | 1 | 3.42e6 | 3.88e6 |
| a5 | 1 | 3.55e6 | 4.14e6 |
| Adk3 | 1 | 3.77e6 | 4.40e6 |
| Reepl1 | 1 | 3.64e6 | 4.10e6 |
| CG17477 | 1 | 3.57e6 | 4.13e6 |
| Bap111 | 1 | 3.58e6 | 3.94e6 |
| CG1737 | 1 | 1.80e6 | 4.07e6 |
| rost | 1 | 3.64e6 | 4.29e6 |
| escl | 1 | 3.94e6 | 4.33e6 |
| ERR | 1 | 3.44e6 | 3.99e6 |
| CG31265 | 1 | 3.58e6 | 4.14e6 |
| CG1537 | 1 | 3.79e6 | 4.32e6 |
| Rpt6R | 1 | 3.69e6 | 4.06e6 |
| CG14200 | 1 | 2.88e6 | 3.66e6 |
| CG14200 | 2 | 3.07e6 | 3.26e6 |
| Csk | 1 | 3.61e6 | 4.21e6 |
| Csk | 2 | 3.34e6 | 3.71e6 |
| Csk | 3 | 3.61e6 | 4.11e6 |
| CG6283 | 1 | 3.48e6 | 3.96e6 |
| sws | 1 | 3.28e6 | 3.71e6 |
| Zip102B | 1 | 3.69e6 | 4.28e6 |
| CG31174 | 1 | 3.57e6 | 4.12e6 |
| Ccn | 1 | 3.54e6 | 3.83e6 |
| Ccn | 2 | 3.47e6 | 4.05e6 |
| Ccn | 3 | 3.77e6 | 4.18e6 |
| Ccn | 4 | 3.49e6 | 3.85e6 |
| msl-2 | 1 | 3.69e6 | 4.10e6 |
| CG1309 | 1 | 3.60e6 | 4.10e6 |
| Jon65Ai | 1 | 3.75e6 | 4.17e6 |
| CG13705 | 1 | 3.59e6 | 3.98e6 |
| CG13705 | 2 | 3.65e6 | 4.01e6 |
| parvin | 1 | 3.62e6 | 4.21e6 |
| gny | 1 | 3.65e6 | 4.34e6 |
| CG32202 | 1 | 3.58e6 | 4.02e6 |
| ms(3)76Cc | 1 | 3.81e6 | 4.26e6 |
| ms(3)76Cc | 2 | 3.46e6 | 3.94e6 |
| CdGAPr | 1 | 3.50e6 | 3.95e6 |
| Hr83 | 1 | 3.50e6 | 3.93e6 |

Reprinted from the listing (2 entries):
| Gene | dsRNA no. | mean viability with MMS | viability with MMS, replicate 1 |
| --- | --- | --- | --- |
| CG3906 | 1 | 3.75e6 | 4.28e6 |
| maca | 1 | 3.42e6 | 3.88e6 |
